Test [1] deals with T1, Robo4 cytoplasmic tail-HA (UniProt Q8C310).
T1 sequence (looked up): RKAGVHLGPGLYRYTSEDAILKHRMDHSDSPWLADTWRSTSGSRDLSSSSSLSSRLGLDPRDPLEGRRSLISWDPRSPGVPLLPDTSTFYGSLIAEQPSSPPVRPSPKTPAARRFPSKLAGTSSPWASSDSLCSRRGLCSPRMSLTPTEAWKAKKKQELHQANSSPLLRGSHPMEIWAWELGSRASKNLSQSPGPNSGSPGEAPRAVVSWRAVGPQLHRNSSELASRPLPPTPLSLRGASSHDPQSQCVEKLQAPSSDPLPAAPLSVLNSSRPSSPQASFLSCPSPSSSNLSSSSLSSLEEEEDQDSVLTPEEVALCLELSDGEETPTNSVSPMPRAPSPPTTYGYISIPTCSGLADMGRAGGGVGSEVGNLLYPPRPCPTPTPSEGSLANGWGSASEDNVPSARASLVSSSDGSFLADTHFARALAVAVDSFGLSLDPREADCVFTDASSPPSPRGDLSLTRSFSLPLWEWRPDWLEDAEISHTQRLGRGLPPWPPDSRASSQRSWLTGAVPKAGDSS
In words: co-immunoprecipitation (anti-HA IP, anti-V5 blot), HEK 293 cells.

By UniProt entry, the sequences of proteins in these tests, tags left out. Where a name states a change or a piece, a line headed by the entry shows the natural chain unless it says otherwise.
UniProt Q62219: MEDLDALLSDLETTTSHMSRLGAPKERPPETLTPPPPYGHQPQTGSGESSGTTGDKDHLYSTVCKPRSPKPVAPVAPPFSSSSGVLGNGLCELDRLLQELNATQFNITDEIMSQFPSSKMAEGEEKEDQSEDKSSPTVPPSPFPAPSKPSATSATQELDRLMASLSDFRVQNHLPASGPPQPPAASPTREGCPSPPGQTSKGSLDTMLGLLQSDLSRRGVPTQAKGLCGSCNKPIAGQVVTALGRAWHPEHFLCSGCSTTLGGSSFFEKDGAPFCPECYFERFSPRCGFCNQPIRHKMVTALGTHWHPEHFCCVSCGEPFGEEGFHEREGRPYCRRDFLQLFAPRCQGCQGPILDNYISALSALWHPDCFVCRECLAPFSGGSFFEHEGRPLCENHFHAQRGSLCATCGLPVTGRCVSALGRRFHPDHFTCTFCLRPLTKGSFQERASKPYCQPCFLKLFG
UniProt Q8VI36: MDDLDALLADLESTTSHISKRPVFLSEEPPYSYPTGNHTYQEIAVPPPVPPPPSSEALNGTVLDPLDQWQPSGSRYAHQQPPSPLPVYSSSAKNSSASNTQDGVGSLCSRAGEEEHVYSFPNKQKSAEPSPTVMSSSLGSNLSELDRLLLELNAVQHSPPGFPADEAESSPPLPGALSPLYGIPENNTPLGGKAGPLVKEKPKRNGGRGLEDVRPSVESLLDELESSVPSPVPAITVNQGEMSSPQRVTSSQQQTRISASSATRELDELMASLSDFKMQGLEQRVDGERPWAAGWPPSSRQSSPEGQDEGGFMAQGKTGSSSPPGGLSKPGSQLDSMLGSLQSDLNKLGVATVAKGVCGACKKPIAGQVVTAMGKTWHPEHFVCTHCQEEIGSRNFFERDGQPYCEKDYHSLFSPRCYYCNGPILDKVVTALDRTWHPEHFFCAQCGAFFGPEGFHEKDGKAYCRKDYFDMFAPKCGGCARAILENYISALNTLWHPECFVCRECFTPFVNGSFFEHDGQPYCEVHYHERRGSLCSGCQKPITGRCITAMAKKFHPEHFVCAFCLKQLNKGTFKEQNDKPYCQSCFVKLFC

For test [2], the target named is T2, Robo4-HA (full length Robo4 tagged with a HA epitope) (UniProt Q8C310).
T2 sequence (looked up): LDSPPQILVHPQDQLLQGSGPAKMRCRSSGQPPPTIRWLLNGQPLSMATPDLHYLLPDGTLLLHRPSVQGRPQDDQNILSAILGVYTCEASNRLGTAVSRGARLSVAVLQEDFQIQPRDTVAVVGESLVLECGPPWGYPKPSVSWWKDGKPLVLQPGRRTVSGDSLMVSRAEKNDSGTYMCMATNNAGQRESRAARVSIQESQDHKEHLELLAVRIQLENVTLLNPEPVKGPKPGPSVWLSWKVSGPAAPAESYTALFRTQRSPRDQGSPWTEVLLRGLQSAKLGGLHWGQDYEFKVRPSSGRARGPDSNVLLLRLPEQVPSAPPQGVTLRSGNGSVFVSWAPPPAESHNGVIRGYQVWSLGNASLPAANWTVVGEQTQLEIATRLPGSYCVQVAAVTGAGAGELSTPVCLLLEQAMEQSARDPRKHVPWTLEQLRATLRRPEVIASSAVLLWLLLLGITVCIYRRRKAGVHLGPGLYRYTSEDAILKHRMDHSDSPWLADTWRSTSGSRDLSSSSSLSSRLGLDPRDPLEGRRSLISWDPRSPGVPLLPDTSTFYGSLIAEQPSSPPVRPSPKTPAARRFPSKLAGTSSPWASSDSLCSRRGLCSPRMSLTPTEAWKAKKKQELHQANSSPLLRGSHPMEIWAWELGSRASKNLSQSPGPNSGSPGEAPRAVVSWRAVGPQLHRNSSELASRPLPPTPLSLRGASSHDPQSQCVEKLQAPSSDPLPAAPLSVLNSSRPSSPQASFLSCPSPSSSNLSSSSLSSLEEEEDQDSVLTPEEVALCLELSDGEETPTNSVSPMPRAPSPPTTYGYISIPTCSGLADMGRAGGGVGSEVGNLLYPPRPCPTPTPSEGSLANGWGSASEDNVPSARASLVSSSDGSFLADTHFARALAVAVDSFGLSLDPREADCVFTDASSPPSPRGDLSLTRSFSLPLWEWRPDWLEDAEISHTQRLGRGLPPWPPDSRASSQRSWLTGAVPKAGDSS
In words: immunoprecipitation from combined HEK cell lysates (anti-HA IP, anti-myc blot).

Test [3] concerns the target T3, NRobo4-HA (N-terminal soluble ectodomain of Robo4 tagged with the HA epitope) (UniProt Q8C310).
T3 sequence (looked up): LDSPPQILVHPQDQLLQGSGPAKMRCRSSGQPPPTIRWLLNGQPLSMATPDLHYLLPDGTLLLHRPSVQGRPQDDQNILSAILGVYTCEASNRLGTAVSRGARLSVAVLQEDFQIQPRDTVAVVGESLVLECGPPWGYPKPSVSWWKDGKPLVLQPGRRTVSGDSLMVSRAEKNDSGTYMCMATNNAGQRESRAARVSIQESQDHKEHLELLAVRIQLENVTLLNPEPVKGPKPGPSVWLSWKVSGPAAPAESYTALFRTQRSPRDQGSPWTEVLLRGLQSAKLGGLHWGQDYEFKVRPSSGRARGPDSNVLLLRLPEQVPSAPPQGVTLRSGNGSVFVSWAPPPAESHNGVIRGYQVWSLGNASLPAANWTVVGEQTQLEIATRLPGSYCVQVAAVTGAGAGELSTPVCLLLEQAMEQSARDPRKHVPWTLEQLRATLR
Description: immunoprecipitation from combined conditioned media (anti-HA IP, anti-myc blot).

Test [4] deals with T2, Robo4-HA (full length Robo4 tagged with a HA epitope). Description: cell binding, Slit-myc conditioned medium on stable Robo4-HEK cells, anti-myc immunofluorescence.

These are yes or no findings as the source states them, for the method shown. For part of these data: In cells and extracts the contact can be indirect. Some binding calls cover weakened binding; strength is not graded here. Where a sequence is shown, tags or fusion partners need not be part of it.

As to Hic-5-V5 (from UniProt Q62219 1-461), in test [1], the binding result is reported as “binds”.

As to “paxillin-Lim (from UniProt Q8VI36 356-591)”, the binding entry in test [1] is “binds”.

For the molecule paxillin-V5 (from UniProt Q8VI36 1-591), the binding entry in test [1] is listed as “binds”.

B1: Slit-myc (Slit tagged with a myc epitope) (ligand, UniProt O94813 31-1529, looked up, not shown: small tags and cut ends)
chain: QCSCSGSTVDCHGLALRSVPRNIPRNTERLDLNGNNITRITKTDFAGLRHLRVLQLMENKISTIERGAFQDLKELERLRLNRNHLQLFPELLFLGTAKLYRLDLSENQIQAIPRKAFRGAVDIKNLQLDYNQISCIEDGAFRALRDLEVLTLNNNNITRLSVASFNHMPKLRTFRLHSNNLYCDCHLAWLSDWLRQRPRVGLYTQCMGPSHLRGHNVAEVQKREFVCSGHQSFMAPSCSVLHCPAACTCSNNIVDCRGKGLTEIPTNLPETITEIRLEQNTIKVIPPGAFSPYKKLRRIDLSNNQISELAPDAFQGLRSLNSLVLYGNKITELPKSLFEGLFSLQLLLLNANKINCLRVDAFQDLHNLNLLSLYDNKLQTIAKGTFSPLRAIQTMHLAQNPFICDCHLKWLADYLHTNPIETSGARCTSPRRLANKRIGQIKSKKFRCSAKEQYFIPGTEDYRSKLSGDCFADLACPEKCRCEGTTVDCSNQKLNKIPEHIPQYTAELRLNNNEFTVLEATGIFKKLPQLRKINFSNNKITDIEEGAFEGASGVNEILLTSNRLENVQHKMFKGLESLKTLMLRSNRITCVGNDSFIGLSSVRLLSLYDNQITTVAPGAFDTLHSLSTLNLLANPFNCNCYLAWLGEWLRKKRIVTGNPRCQKPYFLKEIPIQDVAIQDFTCDDGNDDNSCSPLSRCPTECTCLDTVVRCSNKGLKVLPKGIPRDVTELYLDGNQFTLVPKELSNYKHLTLIDLSNNRISTLSNQSFSNMTQLLTLILSYNRLRCIPPRTFDGLKSLRLLSLHGNDISVVPEGAFNDLSALSHLAIGANPLYCDCNMQWLSDWVKSEYKEPGIARCAGPGEMADKLLLTTPSKKFTCQGPVDVNILAKCNPCLSNPCKNDGTCNSDPVDFYRCTCPYGFKGQDCDVPIHACISNPCKHGGTCHLKEGEEDGFWCICADGFEGENCEVNVDDCEDNDCENNSTCVDGINNYTCLCPPEYTGELCEEKLDFCAQDLNPCQHDSKCILTPKGFKCDCTPGYVGEHCDIDFDDCQDNKCKNGAHCTDAVNGYTCICPEGYSGLFCEFSPPMVLPRTSPCDNFDCQNGAQCIVRINEPICQCLPGYQGEKCEKLVSVNFINKESYLQIPSAKVRPQTNITLQIATDEDSGILLYKGDKDHIAVELYRGRVRASYDTGSHPASAIYSVETINDGNFHIVELLALDQSLSLSVDGGNPKIITNLSKQSTLNFDSPLYVGGMPGKSNVASLRQAPGQNGTSFHGCIRNLYINSELQDFQKVPMQTGILPGCEPCHKKVCAHGTCQPSSQAGFTCECQEGWMGPLCDQRTNDPCLGNKCVHGTCLPINAFSYSCKCLEGHGGVLCDEEEDLFNPCQAIKCKHGKCRLSGLGQPYCECSSGYTGDSCDREISCRGERIRDYYQKQQGYAACQTTKKVSRLECRGGCAGGQCCGPLRSKRRKYSFECTDGSSFVDEVEKVVKCGCTRCVS
B1: the binding result in test [2], in test [3] and in test [4] was “binds” throughout.

Values taken from US20100222401A1, “COMPOSITIONS AND METHODS FOR TREATING PATHOLOGIC ANGIOGENESIS AND VASCULAR PERMEABILITY” (priority 2008, published 2010).
